Laboratory results taken from patent publication US8318207B2, “Encapsulation and controlled release of small molecules for intracellular delivery using thermally responsive nanocapsules” (University of South Carolina, priority 2009, dated 2012).
Some results were stated once for a whole list of compounds, not compound by compound. For at least one compound, name, drawing or mass did not settle the structure.

System: 3T3 fibroblasts
Test: Nanocapsule assisted intracellular delivery of trehalose
Assay type: cell-based
Conditions: samples without nanocapsules, all extracellular trehalose concentrations, 40 min at 37° C.
Description: The procedures performed for cellular uptake of the trehalose loaded nanocapsules was the same as that described in section 2.6 for the uptake of empty nanocapsules. […] The cells were then detached/lysed in deionized water with the aid of a cell scraper. The cells were further lysed using three cycles of freezing and thawing in liquid nitrogen and 37° C. water bath, respectively. The lysed cell suspension was homogenized for 10 min by sonication using a Branson ultrasonic cleaner (Danbury, Conn.) followed by a brief vortex-mixing. After centrifuging at 10,000 g for 10 min, the supernatant of each sample was divided into two aliquots. One aliquot was used to determine trehalose concentration in the sample using the trehalose assay kit (Megazyme Co. Wicklow, Ireland) as described in the previous section. […] The other aliquot was used to determine cell density in the sample based on its DNA content measured using a method described in Dunn et. al, Long-term in vitro function of adult hepatocytes in a collagen sandwich configuration, Biotechnol Prog 1991 May-Jun;7(3):237-245. […] With the trehalose concentration and cell density in the sample being measured, the total amount of intracellular trehalose and the total number of cells (and thus the total osmotically active cell volume) can be calculated. Therefore, the intracellular trehalose concentration can be determined.

`OC[C@H]1O[C@H](O[C@H]2O[C@H](CO)[C@@H](O)[C@H](O)[C@H]2O)[C@H](O)[C@@H](O)[C@@H]1O` [Trehalose w/o NE, α,α-trehalose] gave an intracellular trehalose concentration of under 0.05 M.
